Experimental data published in patent publication US8586533B2, “Treatment of early-stage osteoarthritis” (Kaohsiung Medical University, priority 2008, dated 2013).
Some entries share one result that the patent states for a list of compounds.

Test system: human articular chondrocytes
Test: Quantitative real-time PCR of mRNA levels in azaC-induced terminal differentiation culture model
Type: cell-based
Details: not statistically significant
Protocol: Chondrocyte cultures were divided into 4 groups. […] Louis, Mo.) for 48 hours.

Compound | Bax mRNA expression (azaC group, 3-10 days) | Bax mRNA expression (azaC plus PTH group, 10 nM, 3-10 days of PTH treatment)
Nc1ncn([C@@H]2O[C@H](CO)[C@@H](O)[C@H]2O)c(=O)n1 [azaC, 5-azacytidine] | 61-88 % of control | 
PTH (1-34): 34-amino acid long peptide made up of amino-terminal amino acids 1 through 34 of human parathyroid hormone |  | 61-88 % of control
